This experiment concerns the target T1, Flag-ORMDL3 (human) (UniProt Q8N138).
T1 sequence: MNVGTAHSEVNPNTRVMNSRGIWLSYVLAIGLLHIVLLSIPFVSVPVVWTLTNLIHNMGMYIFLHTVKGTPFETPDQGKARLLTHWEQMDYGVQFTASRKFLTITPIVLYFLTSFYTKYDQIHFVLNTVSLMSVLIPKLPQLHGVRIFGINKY
The experiment can be described thus: co-IP; HEK293T cells co-transfected with MAVS truncations and EV or Flag-ORMDL3; lysates immunoprecipitated with anti-Flag antibody, blots with anti-HA and anti-Flag.

Protein sequences, listed by entry. Tags and fused reporters are not part of them. Lines headed by an entry give the natural chain unless they say otherwise; changes in a name come on top.
UniProt Q7Z434: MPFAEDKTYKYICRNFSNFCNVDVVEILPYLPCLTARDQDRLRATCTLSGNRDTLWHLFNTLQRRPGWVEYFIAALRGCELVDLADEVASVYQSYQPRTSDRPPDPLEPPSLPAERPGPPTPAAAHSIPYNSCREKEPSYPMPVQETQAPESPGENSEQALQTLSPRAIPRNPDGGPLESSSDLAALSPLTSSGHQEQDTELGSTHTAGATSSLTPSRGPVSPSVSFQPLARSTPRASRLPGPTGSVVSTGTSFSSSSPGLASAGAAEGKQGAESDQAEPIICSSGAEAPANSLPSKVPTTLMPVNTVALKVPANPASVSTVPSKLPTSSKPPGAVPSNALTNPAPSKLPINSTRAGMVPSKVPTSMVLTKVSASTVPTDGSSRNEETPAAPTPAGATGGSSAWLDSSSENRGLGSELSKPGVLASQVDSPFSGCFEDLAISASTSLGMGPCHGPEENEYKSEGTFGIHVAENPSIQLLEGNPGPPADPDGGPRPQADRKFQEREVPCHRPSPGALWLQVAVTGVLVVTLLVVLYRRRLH

These are yes or no findings as the source states them, for the method shown. In cells and extracts the contact can be indirect. Some entries that bind do so weakly or less than the wild type. Where a sequence is shown, tags or fusion partners need not be part of it.

“MAVS (HA-tagged, undeleted parent of the MAVS truncations) (from UniProt Q7Z434 1-540)”: the binding result is “binds”.

The values are drawn from publication PMC11932694.
